Results deposited as PubChem BioAssay AID686943 (Drosophila RNAi Screening Center, 2013).
Screen: 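Fly genes whose loss alters ERK activation after insulin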 (primary screen). System: Drosophila S2R+ haemocyte-like cells expressing YFP-tagged ERK (Rolled). Reagents: long dsRNA against Drosophila genes. Treatment: insulin stimulation versus unstimulated cells; dose and duration not given. Measurement: 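Antibody staining for doubly phosphorylated ERK divided by ERK-YFP signal, as plate z-scores, in insulin-treated and untreated cells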. Reading the numbers: replicate 1, z-score of dpERK with insulin: higher = more active ERK per ERK-YFP after insulin.
The deposit covers about 23,000 reagents; below is an unselected part of those that have a named target and a result. 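Extra replicates exist only for a retested subset of genes; insulin dose and duration not given; both raised and lowered dpERK matter.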 Reagents against one gene are numbered here. A plus sign joins genes that one reagent is predicted to hit. Further read-outs or replicates are left out here. No sequences are given here. The record does not give: the amount of reagent, the time to read-out.

target	reagent no.	replicate 1, z-score of dpERK with insulin
CG7789	1	-0.13
Chi	1	-0.66
wun	1	-0.1
CG12699	1	0.2
Frl	1	0.26
Frl	2	0.12
Frl	3	1.64
CG17738	1	-0.2
Vps25	1	0
CG7196 (retired record)	1	0.73
CG7196 (retired record)	2	-0.15
VhaPPA1-2	1	0.97
CG15446	1	0.09
CG5773	1	-3.81
CG6414	1	0.24
cact	1	-2.37
Smn	1	-0.24
CG15255	1	-0.84
nmdyn-D7	1	-1.28
CG34236	1	1
CG34320 (retired record)	1	0.46
aft	1	0.31
CG7183	1	-0.32
CG16790	1	0.99
CG12828	1	0.23
Arp2	1	-1.13
osi	1	0.3
GstZ1	1	0.67
CG13538	1	-0.05
Gr2a	1	-0.87
CG10654	1	-0.04
CG7810	1	0.06
RpS19a	1	0.86
CtsK1	1	-0.34
CG32266	1	0.21
CG9313	1	0.99
CG8646	1	-0.23
CG5805	1	-0.07
tmod	1	-0.36
tmod	2	-0.63
tmod	3	2.1
tmod	4	-0.46
EMC8-9	1	-0.12
CG32037	1	1.08
cib	1	0.55
lmgA + lmgB	1	1.36
CG8176	1	-0.09
Sh3beta	1	0.08
Sh3beta	2	0.2
ida	1	0.16
CG12868	1	0.08
Vps36	1	-0.04
Polr3D	1	-0.83
Or43a	1	0.86
BoYb	1	0.61
Agpat3	1	0.73
CG10013	1	-0.11
Ndae1	1	0.38
Ndae1	2	1.38
Pbp45	1	0.98
CG9861	1	-0.04
lncRNA:noe	1	1.04
CG9577	1	1.54
Cyp4d21	1	0.98
CG9932	1	-0.85
Cox10	1	-0.09
ninaE	1	-0.87
Vha26	1	-0.54
Trp1	1	0.8
CG9308	1	0.04
CG17994	1	-0.24
Naprt	1	-0.36
Syp	1	0.23
Syp	2	-0.05

Quoted from above (6 entries):
target	reagent no.	replicate 1, z-score of dpERK with insulin
CG7789	1	-0.13
Chi	1	-0.66
wun	1	-0.1
CG12699	1	0.2
Frl	1	0.26
Frl	2	0.12
